Experimental data taken from PubChem BioAssay AID485353 (National Center for Advancing Translational Sciences (NCATS), 2010).
In all, about 330,000 compounds went through this assay and about 610 (0.18%) were called active. The inconclusive results got no clear call from the source; some entries with a clear call stand among them for comparison. The call rests on the fitted dose curve. A potency beside an inconclusive call is a rough fit, not a confirmed value.
Potency means the concentration at half of the fitted maximal effect.

Test: qHTS of Yeast-based Assay for SARS-CoV PLP; further: nearly all actives have a fitted effect of over 55% in size
Conditions: S. cerevisiae expressing SARS-CoV PLpro; Potency: growth rescue; series mostly up to 32.9 µM
In the case of CCc1ccc2[nH]c(=O)c(C(c3nnnn3Cc3ccccc3)N3CCOCC3)cc2c1 (stereo not given), the Potency is reported as inconclusive: 3.98 µM [activator, single point].
For CC(C)(C)OC(=O)N1CCC[C@H]1C(=O)N/N=C/c1ccc2nccnc2c1, the Potency was “inactive”.
In the case of Cn1ncc(Cl)c1C(=O)N/N=C/c1ccccn1, the Potency is reported as inconclusive: 20 µM [activator, single point].
For Cc1ccc(OCC(=O)Nc2ccc(S(=O)(=O)N3CCOCC3)cc2)c(C)c1, the Potency was “inactive”.
With CC(=O)c1c(COC(=O)c2ccncc2)nc2ccccc2[n+]1[O-] the Potency was inconclusive: 0.316 µM [activator, full curve, poor fit].
With Cc1ccc(N=C2C(=S)N(c3ccc(C)cc3)C(=N)N2/N=C/c2ccc(Cl)cc2)cc1 the Potency was active: 11.2 µM.
For Cc1nnc(Sc2cc(NCCCO)c([N+](=O)[O-])c3nonc23)s1, the Potency was “inactive”.
With CC(=O)NCCc1cc2ccc(C)cc2[nH]c1=O the Potency was inconclusive: 20 µM [activator, single point].
In the case of CCCc1nc(NCc2ccc3c(c2)OCO3)c2nnn(Cc3ccccc3Cl)c2n1, the Potency is reported as inconclusive: 0.447 µM [activator, full curve, poor fit].
With COC(=O)C1CCN(C(=O)COC(=O)C2CCN(S(=O)(=O)c3ccc4c(c3)OCCO4)CC2)CC1 the Potency was inconclusive: 1.12 µM [activator, partial curve].
For CC(=O)NS(=O)(=O)c1ccc2c(c1)Cc1cc(S(=O)(=O)NC(C)=O)ccc1-2, the Potency was inconclusive: 10 µM [activator, single point].
In the case of CC(=O)C(C)Oc1ccc2c3c(c(=O)oc2c1C)CCCC3 (stereo not given), the Potency is reported as “inactive”.
For Cc1ccnn1CCC(=O)N1CCCC(N2CCN(c3cccc(Cl)c3)CC2)C1 (stereo not given), the Potency was inconclusive: 3.98 µM [activator, single point].
With O=C(NC(=S)Nc1ccc2[nH]c(=O)[nH]c2c1)c1cccc(F)c1 the Potency was “inactive”.
In the case of COc1ccc(CCNC(=O)CN(C)S(=O)(=O)c2ccc3nc(C)sc3c2)cc1OC, the Potency is reported as inconclusive: 0.447 µM [activator, full curve].
For CC(C)C(=O)Nc1c2c(nn1-c1ccc(F)cc1)CSC2, the Potency was inconclusive: 20 µM [activator, single point].
For COc1ccc(CC(=O)N[C@@H]2c3ccccc3CC[C@@H]2OCc2ccccc2)cc1, the Potency was inconclusive: 10 µM [activator, single point].
With CCOc1ccc(CNC(=S)NCc2ccc(OCC)cc2)cc1 the Potency was active: 12.6 µM.
With Cc1ccc(C(c2sc3nc(C)nn3c2O)N2CCN(C(=O)c3ccco3)CC2)cc1 (stereo not given) the Potency was inconclusive: 11.2 µM [activator, partial curve].
With C=CCNC(=S)N/N=C/c1ccc(N(CC)Cc2ccccc2)cc1 the Potency was inconclusive: 20 µM [activator, single point].
With CCC1(C)Cc2c(sc(NC(=S)NC(=O)c3ccccc3)c2C#N)CO1 (stereo not given) the Potency was “inactive”.
In the case of COc1ccc(CCNC(=O)c2cccc(NC(=O)CC3SC(N4CCCCC4)=NC3=O)c2)cc1OC (stereo not given), the Potency is reported as inconclusive: 0.355 µM [activator, partial curve, poor fit].
In the case of COc1cc(O)c(C(CC(=O)N2CCOCC2)c2ccc(N(C)C)cc2)c(OC)c1 (stereo not given), the Potency is reported as “inactive”.
For CC(=O)Nc1ccccc1C(=O)C(=O)Nc1ccccc1, the Potency was “inactive”.
For C[C@@]12C(=O)N(CCc3c[nH]c4ccccc34)CC(=O)N1[C@H]1c3ccccc3OC[C@@H]1[C@@H]2c1ccccc1, the Potency was inconclusive: 11.2 µM [activator, single point].
For COc1cnc(-c2ccccn2)nc1Sc1ccccc1, the Potency was inconclusive: 3.55 µM [activator, single point].
With C=CCN(CC=C)C(=S)NC(=O)/C=C/c1ccc(C)cc1 the Potency was inconclusive: 0.631 µM [activator, full curve].
With CC1(C)CC(OC(=O)c2ccccc2)CC(C)(C)N1 the Potency was inconclusive: 15.8 µM [activator, single point].
With Nn1cnnc1N/N=C/c1ccccc1C(F)(F)F the Potency was “inactive”.
In the case of Cc1ccccc1-n1c(=O)n(CCc2ccccc2)c(=O)c2[nH]cnc21, the Potency is reported as inconclusive: 3.98 µM [activator, single point].
For CSc1nnc(-c2ccco2)n1-c1ccccc1, the Potency was inconclusive: 15.8 µM [activator, single point].
With O=C(CNC(=S)N(Cc1ccccc1)Cc1cccnc1)NC1CCCC1 the Potency was inconclusive: 2.82 µM [activator, single point].
For COc1cccc(CN2CCNCC2)c1OC, the Potency was inconclusive: 12.6 µM [activator, single point].
For C/C(CC(=O)NCCCN1CCOCC1)=N\NC(=O)COc1ccc(C)cc1, the Potency was inconclusive: 11.2 µM [activator, single point].
With CC(C)CN(C(=O)CSc1nn(-c2ccc(Cl)cc2)c(=S)s1)C1CCS(=O)(=O)C1 (stereo not given) the Potency was inconclusive: 15.8 µM [activator, single point].
With COc1cccc(/C=C2\SC(=S)N(CCCC(=O)Nc3ccc(C(=O)O)cc3)C2=O)c1 the Potency was inconclusive: 3.98 µM [activator, single point].
In the case of CC1CCN(S(=O)(=O)c2ccc(Oc3ccc([N+](=O)[O-])cc3)cc2)CC1, the Potency is reported as “inactive”.
For Cc1cccc(N=C2NC(=O)/C(=C/c3cn(C)c4ccccc34)S2)c1, the Potency was active: 15.8 µM.
With CCCCN(C)C(=O)C1CCN(CCCc2ccccc2)CC1 the Potency was “inactive”.
In the case of Fc1ccc(OCc2nn3cnnc3s2)cc1, the Potency is reported as “inactive”.
For CC1CCN(c2c([N+](=O)[O-])nn(-c3ccc4c(c3)OCCO4)[n+]2[O-])CC1, the Potency was active: 3.98 µM.
In the case of O=C(COc1ccc(Br)cc1)NCCCn1ccnc1, the Potency is reported as inconclusive: 2.82 µM [activator, partial curve, poor fit].
In the case of COc1ccc(Nc2nnc(SCC3CCCO3)s2)cc1 (stereo not given), the Potency is reported as “inactive”.
In the case of CC(COC(=O)c1ccccc1)(COC(=O)c1ccccc1)/[N+]([O-])=C/c1ccccc1, the Potency is reported as inconclusive: 4.47 µM [activator, single point].
With Cc1ccc(-n2nnnc2CNC(=O)c2ccc3c(c2)OCO3)cc1C the Potency was inconclusive: 20 µM [activator, single point].
